According to US20180243325A1, “METHOD FOR INHIBITING ABSORPTION OF AND/OR PROMOTING EXCRETION OF LIPIDS USING D-PSICOSE” (CJ CHEILJEDANG CORPORATION, priority 2015, published 2018):

What follows are compounds tested on high-fat diet-induced obese mice (assay: Body weight, organ weight and adipose tissue weight of high-fat diet-induced obese mice). Conditions: HFD+5% w/w in diet, pair feeding based on PSI group.
Format: in vivo, C57BL/6J mice
Procedure: First, 4-week-old male C57BL/6J mice (60 total) were purchased from Jackson Laboratory. The animals were acclimated to the vivarium in a thermo-hygrostat (20-23° C., 45-65%) under a 12 h light/dark cycle and fed a pelletized commercial non-purified diet for 1 week after arrival. The mice were then randomly divided into 6 groups (n=10) and fed the respective experimental diets for 16 weeks: normal diet group (ND, American Institute of Nutrition (AIN)-76 semi-synthetic diet), high-fat diet group (HFD, 20% fat+1% cholesterol based on AIN-76 diet), PSI group (HFD+5% D-psicose, w/w, Sigma Chemical Company), ERY group (HFD+5% erythritol, w/w, Sigma Chemical Company), GLU group (HFD+5% D-glucose, w/w, Sigma Chemical Company), and FRU group (HFD+5% D-fructose, w/w, Sigma Chemical Company). All high-fat diet-fed groups were allowed to ingest the same calories by pair feeding based on the PSI group. The mice had ad libitum access to distilled water during the experimental period. Their feed intakes and body weights were measured daily and biweekly, respectively. The organ weights and the adipose tissue weights of the mice were measured after sacrificing the animals.

Compound	Energy Intake	Food Intake
OC[C@@H](O)[C@@H](O)CO [ERY, erythritol]	13.88 kcal/day	3.17 g/day
O=C(CO)[C@@H](O)[C@H](O)[C@H](O)CO [FRU, D-fructose]	13.88 kcal/day	3.03 g/day
O=C[C@H](O)[C@@H](O)[C@H](O)[C@H](O)CO [GLU, D-glucose]	13.88 kcal/day	3.03 g/day
O=C(CO)[C@H](O)[C@H](O)[C@H](O)CO [PSI, D-psicose]	13.88 kcal/day	3.17 g/day
